# Assay results: the supplement of paper PMC8728848
# The other results are listed elsewhere or left out.
# B1: PX9961KLbvu-535-38-535 (Bacteroides vulgatus) (protein)
# chain: DKAYTDAESYTKGLHKIYSVWALSGQDGSSSSDISGLDAGNTALLRCWWTLQEQPTDEMKNAWNDAWCTEVNYMTWTTNKVEPIEGVYQRCMYIVALVNEFLKNIPNAPESIDKESYIAQARFNRAFAYYVLMDMFALPPFITEKNYSIEPAPLSREDLFNWIEAELNEIKPNLPSPRSEYGVADQAVASALLARMYLNAEIYTGKARYTECINACNEVIKAGYQLADNYADLFKADNGENPDTKKEIIYPIIFDGDKTQSWGMAAIIIGARGAEDKDVLLAHSGVDQGWAGFRATSNLVHLFDFQNDEEPKASEIQDKRGIFYDKGRSIDITSSVSGTFETEGWSVFKFSNLNSNGQPGKNTLWVDTDFPMFRLGDIYLMYAEAVARGGEGSKASAVEYINALRKRAYGDDKHNISENWLEENNFRNLLDERGRELYWEGIRRTDLVRFDLLTSGSYTWDFKGGINTGVGVNKRYNVYPIPVTDLTVNGNLQQNEGY
# Assays:
# Assay in all cases: glycan array binding signal (z-score within array); higher = stronger binding
# Settings in all cases: glycan notation: IUPAC condensed, linker removed
# GalNAc(b1-3)Gal = target: GalNAc(b1-3)Gal
# Method in brief: (§1)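 The binding signal is a Z-score computed within each array. Data were drawn from 3228 arrays in the Consortium for Functional Glycomics database, restricted to those with a known protein sequence. Scores were averaged over arrays of the same protein sequence at different concentrations or buffers, and over linkers, and negative values can be taken as non-binding.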
# [1] = target: GalNAc(b1-3)Gal(a1-4)Gal(b1-4)GlcNAc
# Method in brief: as §1
# [2] = target: GalNAc(b1-3)Gal(a1-4)Gal(b1-4)GlcNAc(b1-3)Gal(b1-4)Glc
# Method in brief: as §1
# [3] = target: GalNAc(b1-3)Gal(a1-6)Gal(b1-4)Glc
# Method in brief: as §1
# GalNAc(b1-3)GalNAc = target: GalNAc(b1-3)GalNAc
# Method in brief: as §1
# GalNAc(b1-3)GlcNAc = target: GalNAc(b1-3)GlcNAc
# Method in brief: as §1
# GalNAc(b1-4)Gal(b1-4)Glc = target: GalNAc(b1-4)Gal(b1-4)Glc
# Method in brief: as §1
# GalNAc(b1-4)GlcNAc = target: GalNAc(b1-4)GlcNAc
# Method in brief: as §1
# [4] = target: GalNAc(b1-4)GlcNAc(b1-2)Man
# Method in brief: as §1
# [5] = target: GalNAc(b1-4)GlcNAc(b1-2)Man(a1-3)[GalNAc(b1-4)GlcNAc(b1-2)Man(a1-6)]Man(b1-4)GlcNAc(b1-4)GlcNAc
# Method in brief: as §1
# [6] = target: GalNAc(b1-4)GlcNAc(b1-3)GalNAc(b1-4)GlcNAc
# Method in brief: as §1
# GalNAc(b1-4)GlcNAc6S = target: GalNAc(b1-4)GlcNAc6S
# Method in brief: as §1
# GalNAc(b1-6)GalNAc = target: GalNAc(b1-6)GalNAc
# Method in brief: as §1
# GalNAc3S(b1-4)GlcNAc = target: GalNAc3S(b1-4)GlcNAc
# Method in brief: as §1
# GalNAc3S(b1-4)GlcNAc3S = target: GalNAc3S(b1-4)GlcNAc3S
# Method in brief: as §1
# [7] = target: GalNAc3S(b1-4)[Fuc(a1-3)]GlcNAc
# Method in brief: as §1
# GalNAc4S6S(b1-4)GlcNAc = target: GalNAc4S6S(b1-4)GlcNAc
# Method in brief: as §1
# GalNAc6S(b1-4)GlcNAc = target: GalNAc6S(b1-4)GlcNAc
# Method in brief: as §1
# Glc(a1-4)Glc = target: Glc(a1-4)Glc
# Method in brief: as §1
# [8] = target: Glc(a1-4)Glc(a1-4)Glc(a1-4)Glc
# Method in brief: as §1
# Glc(a1-6)Glc(a1-6)Glc = target: Glc(a1-6)Glc(a1-6)Glc
# Method in brief: as §1
# [9] = target: Glc(a1-6)Glc(a1-6)Glc(a1-6)Glc
# Method in brief: as §1
# Glc(b1-4)Glc = target: Glc(b1-4)Glc
# Method in brief: as §1
# Glc(b1-6)Glc = target: Glc(b1-6)Glc
# Method in brief: as §1
# GlcA(b1-3)Gal = target: GlcA(b1-3)Gal
# Method in brief: as §1
# GlcA(b1-3)GlcNAc = target: GlcA(b1-3)GlcNAc
# Method in brief: as §1
# GlcA(b1-6)Gal = target: GlcA(b1-6)Gal
# Method in brief: as §1
# [10] = target: GlcA3S(b1-3)Gal(b1-4)GlcNAc(b1-2)Man
# Method in brief: as §1
# [11] = target: GlcA3S(b1-3)Gal(b1-4)GlcNAc(b1-3)Gal(b1-4)Glc
# Method in brief: as §1
# [12] = target: GlcNAc(a1-3)Gal(b1-4)GlcNAc
# Method in brief: as §1
# [13] = target: GlcNAc(a1-4)Gal(b1-3)GlcNAc
# Method in brief: as §1
# [14] = target: GlcNAc(a1-4)Gal(b1-4)GalNAc
# Method in brief: as §1
# [15] = target: GlcNAc(a1-4)Gal(b1-4)GlcNAc
# Method in brief: as §1
# [16] = target: GlcNAc(a1-4)Gal(b1-4)GlcNAc(b1-3)Gal(b1-4)Glc
# Method in brief: as §1
# [17] = target: GlcNAc(a1-4)Gal(b1-4)GlcNAc(b1-3)Gal(b1-4)GlcNAc
# Method in brief: as §1
# [18] = target: GlcNAc(a1-4)Gal(b1-4)GlcNAc(b1-3)Gal(b1-4)GlcNAc(b1-3)Gal(b1-4)GlcNAc
# Method in brief: as §1
# [19] = target: GlcNAc(a1-4)Gal(b1-4)GlcNAc(b1-3)Gal(b1-4)[Fuc(a1-3)]GlcNAc(b1-3)Gal(b1-4)[Fuc(a1-3)]GlcNAc
# Method in brief: as §1
# [20] = target: GlcNAc(a1-6)Gal(b1-4)GlcNAc
# Method in brief: as §1
binder,measurement,setting,value
B1,glycan array binding signal (z-score),GalNAc(b1-3)Gal,-0.351
same,glycan array binding signal (z-score),[1],1.14
same,glycan array binding signal (z-score),[2],-0.002
same,glycan array binding signal (z-score),[3],0.416
same,glycan array binding signal (z-score),GalNAc(b1-3)GalNAc,-0.606
same,glycan array binding signal (z-score),GalNAc(b1-3)GlcNAc,-0.582
same,glycan array binding signal (z-score),GalNAc(b1-4)Gal(b1-4)Glc,-0.801
same,glycan array binding signal (z-score),GalNAc(b1-4)GlcNAc,0.694
same,glycan array binding signal (z-score),[4],-0.613
same,glycan array binding signal (z-score),[5],0.869
same,glycan array binding signal (z-score),[6],-0.094
same,glycan array binding signal (z-score),GalNAc(b1-4)GlcNAc6S,0.185
same,glycan array binding signal (z-score),GalNAc(b1-6)GalNAc,-0.533
same,glycan array binding signal (z-score),GalNAc3S(b1-4)GlcNAc,0.715
same,glycan array binding signal (z-score),GalNAc3S(b1-4)GlcNAc3S,-0.352
same,glycan array binding signal (z-score),[7],0.247
same,glycan array binding signal (z-score),GalNAc4S6S(b1-4)GlcNAc,-0.411
same,glycan array binding signal (z-score),GalNAc6S(b1-4)GlcNAc,-0.871
same,glycan array binding signal (z-score),Glc(a1-4)Glc,0.984
same,glycan array binding signal (z-score),[8],-0.42
same,glycan array binding signal (z-score),Glc(a1-6)Glc(a1-6)Glc,-0.726
same,glycan array binding signal (z-score),[9],0.499
same,glycan array binding signal (z-score),Glc(b1-4)Glc,-0.497
same,glycan array binding signal (z-score),Glc(b1-6)Glc,0.138
same,glycan array binding signal (z-score),GlcA(b1-3)Gal,-0.742
same,glycan array binding signal (z-score),GlcA(b1-3)GlcNAc,0.124
same,glycan array binding signal (z-score),GlcA(b1-6)Gal,-0.072
same,glycan array binding signal (z-score),[10],-0.203
same,glycan array binding signal (z-score),[11],-0.814
same,glycan array binding signal (z-score),[12],-0.731
same,glycan array binding signal (z-score),[13],-0.768
same,glycan array binding signal (z-score),[14],-0.092
same,glycan array binding signal (z-score),[15],0.084
same,glycan array binding signal (z-score),[16],-0.257
same,glycan array binding signal (z-score),[17],0.221
same,glycan array binding signal (z-score),[18],-0.034
same,glycan array binding signal (z-score),[19],0.673
same,glycan array binding signal (z-score),[20],-0.543

# Two entries drawn at random from those above, as already listed:
binder,measurement,setting,value
B1,glycan array binding signal (z-score),GalNAc(b1-3)GlcNAc,-0.582
same,glycan array binding signal (z-score),GalNAc3S(b1-4)GlcNAc,0.715
